According to paper doi:10.1101/2024.01.05.574348:
No constants are given. Whether binding was seen depends on the method and setting. Binding seen in cells or lysates may run through a third protein. Some entries that bind do so weakly or less than the wild type.

Protein sequences, listed by entry. Tags and fused reporters are not part of them. Residues count along the entry.
UniProt P02787, residues 20-698: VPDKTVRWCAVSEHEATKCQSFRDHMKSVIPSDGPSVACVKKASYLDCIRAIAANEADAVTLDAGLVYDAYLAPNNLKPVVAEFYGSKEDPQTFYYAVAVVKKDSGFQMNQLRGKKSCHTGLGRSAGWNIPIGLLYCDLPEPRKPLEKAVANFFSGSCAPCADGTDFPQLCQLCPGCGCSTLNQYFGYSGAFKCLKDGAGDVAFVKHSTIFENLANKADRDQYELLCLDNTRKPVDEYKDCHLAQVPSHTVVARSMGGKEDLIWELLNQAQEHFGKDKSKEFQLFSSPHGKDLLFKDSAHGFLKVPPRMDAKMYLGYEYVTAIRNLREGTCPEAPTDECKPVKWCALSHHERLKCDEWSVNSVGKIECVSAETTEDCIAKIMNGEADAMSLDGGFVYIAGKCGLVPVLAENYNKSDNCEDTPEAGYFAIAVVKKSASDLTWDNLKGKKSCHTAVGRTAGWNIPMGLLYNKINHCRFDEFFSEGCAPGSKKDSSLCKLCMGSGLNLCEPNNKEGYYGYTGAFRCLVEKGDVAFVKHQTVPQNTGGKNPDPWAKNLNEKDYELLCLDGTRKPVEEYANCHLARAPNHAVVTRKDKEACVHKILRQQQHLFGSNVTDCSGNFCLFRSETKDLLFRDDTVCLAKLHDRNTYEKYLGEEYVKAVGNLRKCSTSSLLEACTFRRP
UniProt P04406: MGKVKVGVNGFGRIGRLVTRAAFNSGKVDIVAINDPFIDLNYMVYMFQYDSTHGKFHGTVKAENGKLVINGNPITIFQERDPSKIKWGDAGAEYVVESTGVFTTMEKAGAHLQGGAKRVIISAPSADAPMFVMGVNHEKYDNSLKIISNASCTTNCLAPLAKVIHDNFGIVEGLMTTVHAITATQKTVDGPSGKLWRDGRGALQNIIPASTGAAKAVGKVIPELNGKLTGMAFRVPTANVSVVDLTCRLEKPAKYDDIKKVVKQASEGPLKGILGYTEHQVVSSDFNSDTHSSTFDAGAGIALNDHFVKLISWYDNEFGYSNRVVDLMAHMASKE

Target: biotinylated apo-transferrin (UniProt P02787)
Experiment: pull-down

Glyceraldehyde-3-phosphate dehydrogenase (GAPDH) (from UniProt P04406 1-335)
binding: binds
